Results reported in the supplement of paper PMC6078165.
The reference is the same well before dosing, and untreated signal decays as well.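 Fibroblast labels name human fibroblasts: mostly primary ones from tissues such as uterus (C12385, HUF), lung (H6013), bone (Hs27A), adrenal (HADF) and skin (WS1), plus mammary HMF and breast cancer-associated Hs343T. The cancer cells are basal-like or mesenchymal-like triple-negative breast cancer lines. The paper calls a changed response a hit when it shifts by more than 3x the replicate standard deviation. The tissue of the other fibroblasts is not given here.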

System: BT20
Assay: relative JC-1 red fluorescence (viability) vs pre-drug, coculture with fibroblast (fraction); higher = more viable cancer cells
Method: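 JC-1 labelled TNBC cells cocultured 1:1 (1,500 cells each) with CellTrace Violet stained primary or stromal fibroblasts in 384-well plates in FluoroBrite medium, treated with one of 42 anticancer drugs at 0.1, 1, 10 or 100 uM. JC-1 red fluorescence (mitochondrial integrity in cancer cells only) was read by plate reader every 8 h for 72 h. Values are normalised to each well's pre-drug value. The stock of one drug was tenfold lower, so its dose labels may be too high.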

CCCCCOC(=O)Nc1nc(=O)n([C@@H]2O[C@H](C)[C@@H](O)[C@H]2O)cc1F [Capecitabine]
relative JC-1 red fluorescence
Conditions | 8 h | 16 h | 24 h | 32 h | 40 h | 48 h | 56 h | 64 h | 72 h
0.1 µM, coculture fibroblast: C12385 | 0.88 | 0.805 | 0.748 | 0.67 | 0.606 | 0.57 | 0.535 | 0.517 | 0.4994
0.1 µM, coculture fibroblast: H6013 | 0.943 | 0.9031 | 0.869 | 0.824 | 0.777 | 0.758 | 0.746 | 0.713 | 0.698
0.1 µM, coculture fibroblast: H6019 | 0.854 | 0.788 | 0.7548 | 0.697 | 0.658 | 0.635 | 0.596 | 0.558 | 0.538
0.1 µM, coculture fibroblast: H6076 | 0.941 | 0.901 | 0.802 | 0.748 | 0.72 | 0.688 | 0.68 | 0.666 | 0.646
0.1 µM, coculture fibroblast: H6231 | 0.808 | 0.878 | 0.788 | 0.703 | 0.659 | 0.611 | 0.575 | 0.552 | 0.528
0.1 µM, coculture fibroblast: HADF | 0.95 | 0.911 | 0.832 | 0.8032 | 0.765 | 0.712 | 0.697 | 0.672 | 0.6318
0.1 µM, coculture fibroblast: HCFa | 0.934 | 0.894 | 0.875 | 0.817 | 0.771 | 0.725 | 0.703 | 0.675 | 0.641
0.1 µM, coculture fibroblast: HCPF | 0.863 | 0.909 | 0.825 | 0.758 | 0.708 | 0.648 | 0.6035 | 0.588 | 0.56
0.1 µM, coculture fibroblast: HHSteC | 0.9113 | 0.885 | 0.864 | 0.782 | 0.739 | 0.7 | 0.672 | 0.637 | 0.613
0.1 µM, coculture fibroblast: HMF | 0.95 | 0.857 | 0.754 | 0.696 | 0.654 | 0.6061 | 0.582 | 0.556 | 0.541
0.1 µM, coculture fibroblast: HPFa | 0.9586 | 0.8612 | 0.837 | 0.7444 | 0.697 | 0.645 | 0.602 | 0.564 | 0.504
0.1 µM, coculture fibroblast: HUF | 0.9092 | 0.7909 | 0.759 | 0.668 | 0.622 | 0.581 | 0.546 | 0.53 | 0.509
0.1 µM, coculture fibroblast: Hs5 | 0.764 | 0.9601 | 0.864 | 0.791 | 0.729 | 0.679 | 0.629 | 0.592 | 0.564
0.1 µM, coculture fibroblast: Hs27A | 0.787 | 0.94 | 0.8912 | 0.8911 | 0.833 | 0.80472 | 0.7754 | 0.7482 | 0.692
0.1 µM, coculture fibroblast: Hs343T | 0.851 | 0.9021 | 0.7846 | 0.7334 | 0.668 | 0.6188 | 0.585 | 0.558 | 0.524
0.1 µM, coculture fibroblast: WS1 | 0.832 | 0.75 | 0.679 | 0.599 | 0.54 | 0.5 | 0.463 | 0.438 | 0.421
1 µM, coculture fibroblast: C12385 | 0.934 | 0.8414 | 0.804 | 0.724 | 0.673 | 0.647 | 0.621 | 0.608 | 0.596
1 µM, coculture fibroblast: H6013 | 0.903 | 0.873 | 0.901 | 0.865 | 0.855 | 0.845 | 0.854 | 0.841 | 0.84
1 µM, coculture fibroblast: H6019 | 0.866 | 0.791 | 0.764 | 0.695 | 0.652 | 0.637 | 0.601 | 0.578 | 0.56
1 µM, coculture fibroblast: H6076 | 0.852 | 0.859 | 0.778 | 0.743 | 0.725 | 0.695 | 0.694 | 0.696 | 0.686
1 µM, coculture fibroblast: H6231 | 0.774 | 0.938 | 0.7837 | 0.718 | 0.666 | 0.6172 | 0.582 | 0.559 | 0.528
1 µM, coculture fibroblast: HADF | 0.895 | 0.8441 | 0.8072 | 0.7471 | 0.718 | 0.674 | 0.6612 | 0.645 | 0.62
1 µM, coculture fibroblast: HCFa | 0.903 | 0.822 | 0.799 | 0.729 | 0.681 | 0.644 | 0.616 | 0.586 | 0.548
1 µM, coculture fibroblast: HCPF | 0.897 | 0.873 | 0.806 | 0.749 | 0.704 | 0.663 | 0.621 | 0.608 | 0.576
1 µM, coculture fibroblast: HHSteC | 0.854 | 0.904 | 0.862 | 0.726 | 0.761 | 0.779 | 0.742 | 0.661 | 0.717
1 µM, coculture fibroblast: HMF | 0.935 | 0.8125 | 0.7162 | 0.6669 | 0.629 | 0.586 | 0.565 | 0.546 | 0.522
1 µM, coculture fibroblast: HPFa | 0.939 | 0.836 | 0.8654 | 0.7801 | 0.7507 | 0.703 | 0.691 | 0.666 | 0.618
1 µM, coculture fibroblast: HUF | 0.923 | 0.797 | 0.758 | 0.678 | 0.622 | 0.574 | 0.549 | 0.527 | 0.515
1 µM, coculture fibroblast: Hs5 | 0.945 | 0.864 | 0.7894 | 0.7367 | 0.6923 | 0.6515 | 0.618 | 0.59 | 0.5606
1 µM, coculture fibroblast: Hs27A | 0.71 | 0.7603 | 0.906 | 0.92255 | 0.897 | 0.804 | 0.933 | 0.907 | 0.857
1 µM, coculture fibroblast: Hs343T | 0.975 | 0.8286 | 0.7012 | 0.6323 | 0.57 | 0.5201 | 0.469 | 0.4412 | 0.413
1 µM, coculture fibroblast: WS1 | 0.876 | 0.76 | 0.695 | 0.609 | 0.552 | 0.516 | 0.483 | 0.459 | 0.452
